From paper PMC4449543 come the findings set out here.

Results are given in words; binding and its absence hold for the method and conditions named. Binding seen in cells or lysates may run through a third protein. Some binding calls cover weakened binding; strength is not graded here.

The target of this assay is AtbZIP63 (UniProt B9DGI8). The assay can be described thus: split reporter; BiFC: nYFP and cYFP fusions (pSPYNE-35S, pSPYCE-35S) transiently expressed in Nicotiana benthamiana leaf epidermis by Agrobacterium infiltration; YFP fluorescence by microscopy.

B1: AtbZIP63 (protein, UniProt B9DGI8 1-314)
chain: MEKVFSDEEISGNHHWSVNGMTSLNRSASEWAFNRFIQESSAAADDGESTTACGVSVSSPPNVPVDSEEYRAFLKSKLNLACAAVAMKRGTFIKPQDTSGRSDNGGANESEQASLASSKATPMMSSAITSGSELSGDEEEADGETNMNPTNVKRVKRMLSNRESARRSRRRKQAHLSELETQVSQLRVENSKLMKGLTDVTQTFNDASVENRVLKANIETLRAKVKMAEETVKRLTGFNPMFHNMPQIVSTVSLPSETSNSPDTTSSQVTTPEIISSGNKGKALIGCKMNRTASMRRVESLEHLQKRIRSVGDQ
Consider B1, for which the binding result was “binds”.
